Test results as given in the supplement of paper PMC8728848.
Some of the results follow.

Assays:
Assay in all cases: glycan array binding signal (z-score within array); higher = stronger binding
Details in all cases: glycan notation: IUPAC condensed, linker removed
[1] = biological target: GlcNAc(b1-3)Gal(b1-4)GlcNAc(b1-3)Gal(b1-4)GlcNAc(b1-3)Gal(b1-4)GlcNAc(b1-3)Gal(b1-4)GlcNAc(b1-2)[GlcNAc(b1-3)Gal(b1-4)GlcNAc(b1-3)Gal(b1-4)GlcNAc(b1-3)Gal(b1-4)GlcNAc(b1-3)Gal(b1-4)GlcNAc(b1-6)]Man(a1-6)[GlcNAc(b1-3)Gal(b1-4)GlcNAc(b1-3)Gal(b1-4)GlcNAc(b1-3)Gal(b1-4)GlcNAc(b1-3)Gal(b1-4)GlcNAc(b1-2)Man(a1-3)]Man(b1-4)GlcNAc(b1-4)[Fuc(a1-6)]GlcNAc
Procedure, shortened: (§1)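 Columns mapping to the same glycan were averaged after glycan names were converted to IUPAC-condensed notation. The data come from 3228 arrays in the Consortium for Functional Glycomics database, limited to those with an available protein sequence. Binding is reported as a within-array Z-score averaged across arrays of one protein sequence and across linkers.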

[2] = biological target: GlcNAc(b1-3)Gal(b1-4)GlcNAc(b1-3)Gal(b1-4)GlcNAc(b1-3)GalNAc
Procedure, shortened: as §1

[3] = biological target: GlcNAc(b1-3)Gal(b1-4)GlcNAc(b1-3)GalNAc
Procedure, shortened: as §1

[4] = biological target: GlcNAc(b1-3)Gal(b1-4)GlcNAc(b1-3)[GlcNAc(b1-3)Gal(b1-4)GlcNAc(b1-3)]GalNAc
Procedure, shortened: as §1

[5] = biological target: GlcNAc(b1-3)Gal(b1-4)GlcNAc(b1-6)[Gal(b1-3)]GalNAc
Procedure, shortened: as §1

[6] = biological target: GlcNAc(b1-3)Gal(b1-4)GlcNAc(b1-6)[GlcNAc(b1-3)Gal(b1-3)]GalNAc
Procedure, shortened: as §1

[7] = biological target: GlcNAc(b1-3)Gal(b1-4)GlcNAc(b1-6)[GlcNAc(b1-3)]Gal(b1-4)GlcNAc
Procedure, shortened: as §1

GlcNAc(b1-3)GalNAc = biological target: GlcNAc(b1-3)GalNAc
Procedure, shortened: as §1

GlcNAc(b1-3)Man = biological target: GlcNAc(b1-3)Man
Procedure, shortened: as §1

[8] = biological target: GlcNAc(b1-3)[GlcNAc(b1-4)][GlcNAc(b1-6)]GlcNAc
Procedure, shortened: as §1

[9] = biological target: GlcNAc(b1-3)[GlcNAc(b1-6)]Gal(b1-4)GlcNAc
Procedure, shortened: as §1

[10] = biological target: GlcNAc(b1-3)[GlcNAc(b1-6)]GalNAc
Procedure, shortened: as §1

[11] = biological target: GlcNAc(b1-4)Gal(b1-4)GlcNAc
Procedure, shortened: as §1

GlcNAc(b1-4)GlcNAc = biological target: GlcNAc(b1-4)GlcNAc
Procedure, shortened: as §1

[12] = biological target: GlcNAc(b1-4)GlcNAc(b1-4)GlcNAc
Procedure, shortened: as §1

[13] = biological target: GlcNAc(b1-4)GlcNAc(b1-4)GlcNAc(b1-4)GlcNAc(b1-4)GlcNAc
Procedure, shortened: as §1

[14] = biological target: GlcNAc(b1-4)GlcNAc(b1-4)GlcNAc(b1-4)GlcNAc(b1-4)GlcNAc(b1-4)GlcNAc
Procedure, shortened: as §1

[15] = biological target: GlcNAc(b1-4)[GlcNAc(b1-6)]GalNAc
Procedure, shortened: as §1

[16] = biological target: GlcNAc(b1-6)Gal(b1-4)GlcNAc
Procedure, shortened: as §1

GlcNAc(b1-6)GalNAc = biological target: GlcNAc(b1-6)GalNAc
Procedure, shortened: as §1

[17] = biological target: GlcNAc6S(b1-3)Gal(b1-4)GlcNAc
Procedure, shortened: as §1

Kdn(a2-3)Gal(b1-3)GalNAc = biological target: Kdn(a2-3)Gal(b1-3)GalNAc
Procedure, shortened: as §1

Kdn(a2-3)Gal(b1-3)GlcNAc = biological target: Kdn(a2-3)Gal(b1-3)GlcNAc
Procedure, shortened: as §1

Kdn(a2-3)Gal(b1-4)Glc = biological target: Kdn(a2-3)Gal(b1-4)Glc
Procedure, shortened: as §1

Kdn(a2-3)Gal(b1-4)GlcNAc = biological target: Kdn(a2-3)Gal(b1-4)GlcNAc
Procedure, shortened: as §1

[18] = biological target: Kdn(a2-3)Gal(b1-4)[Fuc(a1-3)]GlcNAc
Procedure, shortened: as §1

Kdn(a2-6)Gal(b1-4)GlcNAc = biological target: Kdn(a2-6)Gal(b1-4)GlcNAc
Procedure, shortened: as §1

[19] = biological target: Man(a1-2)Man(a1-2)Man(a1-3)Man
Procedure, shortened: as §1

[20] = biological target: Man(a1-2)Man(a1-2)Man(a1-6)[Man(a1-3)]Man
Procedure, shortened: as §1

Man(a1-2)Man(a1-3)Man = biological target: Man(a1-2)Man(a1-3)Man
Procedure, shortened: as §1

[21] = biological target: Man(a1-2)Man(a1-3)[Man(a1-2)Man(a1-6)]Man
Procedure, shortened: as §1

[22] = biological target: Man(a1-2)Man(a1-3)[Man(a1-2)Man(a1-6)]Man(a1-6)[Man(a1-2)Man(a1-2)Man(a1-3)]Man
Procedure, shortened: as §1

[23] = biological target: Man(a1-2)Man(a1-3)[Man(a1-2)Man(a1-6)]Man(a1-6)[Man(a1-2)Man(a1-2)Man(a1-3)]Man(b1-4)GlcNAc(b1-4)GlcNAc
Procedure, shortened: as §1

[24] = biological target: Man(a1-2)Man(a1-3)[Man(a1-6)]Man(a1-6)[Man(a1-2)Man(a1-3)]Man(b1-4)GlcNAc(b1-4)GlcNAc
Procedure, shortened: as §1

[25] = biological target: Man(a1-2)Man(a1-6)[Man(a1-3)]Man(a1-6)[Man(a1-2)Man(a1-2)Man(a1-3)]Man
Procedure, shortened: as §1

[26] = biological target: Man(a1-2)Man(a1-6)[Man(a1-3)]Man(a1-6)[Man(a1-2)Man(a1-2)Man(a1-3)]Man(b1-4)GlcNAc(b1-4)GlcNAc
Procedure, shortened: as §1

Man(a1-3)[Man(a1-6)]Man = biological target: Man(a1-3)[Man(a1-6)]Man
Procedure, shortened: as §1

[27] = biological target: Man(a1-3)[Man(a1-6)]Man(a1-6)[Man(a1-2)Man(a1-3)]Man(b1-4)GlcNAc(b1-4)GlcNAc
Procedure, shortened: as §1

[28] = biological target: Man(a1-3)[Man(a1-6)]Man(a1-6)[Man(a1-3)]Man
Procedure, shortened: as §1

[29] = biological target: Man(a1-3)[Man(a1-6)]Man(a1-6)[Man(a1-3)]Man(b1-4)GlcNAc(b1-4)GlcNAc
Procedure, shortened: as §1

[30] = biological target: Man(a1-3)[Man(a1-6)]Man(b1-4)GlcNAc(b1-4)GlcNAc
Procedure, shortened: as §1

[31] = biological target: Man(a1-3)[Man(a1-6)]Man(b1-4)GlcNAc(b1-4)[Fuc(a1-6)]GlcNAc
Procedure, shortened: as §1

Man(a1-6)Man = biological target: Man(a1-6)Man
Procedure, shortened: as §1

Man(b1-4)GlcNAc = biological target: Man(b1-4)GlcNAc
Procedure, shortened: as §1

MurNAc(b1-4)GlcNAc = biological target: MurNAc(b1-4)GlcNAc
Procedure, shortened: as §1

B1: CD34 (Homo sapiens), P28906 (protein)
chain: MGSSHHHHHHSSGLVPRGSHMSTSLATSPTKPYTSSSPILSDIKAEIKCSGIREVKLTQGICLEQNKTSSCAEFKKDRGEGLARVLCGEEQADADAGAQVCSLLLAQSEVRPQCLLLVLANRTEISSKLQLMKKHQSDLKKLGILDFTEQDVASHQSYSQKT
glycan array binding signal (z-score) [1]: 1.54
glycan array binding signal (z-score) [2]: -0.273
glycan array binding signal (z-score) [3]: -0.037
glycan array binding signal (z-score) [4]: 0.396
glycan array binding signal (z-score) [5]: 0.216
glycan array binding signal (z-score) [6]: 0.516
glycan array binding signal (z-score) [7]: -0.158
glycan array binding signal (z-score) (GlcNAc(b1-3)GalNAc): -0.689
glycan array binding signal (z-score) (GlcNAc(b1-3)Man): 0.808
glycan array binding signal (z-score) [8]: -0.998
glycan array binding signal (z-score) [9]: -0.484
glycan array binding signal (z-score) [10]: -0.655
glycan array binding signal (z-score) [11]: 0.073
glycan array binding signal (z-score) (GlcNAc(b1-4)GlcNAc): -0.017
glycan array binding signal (z-score) [12]: -0.507
glycan array binding signal (z-score) [13]: 0.087
glycan array binding signal (z-score) [14]: -0.038
glycan array binding signal (z-score) [15]: -0.694
glycan array binding signal (z-score) [16]: -0.009
glycan array binding signal (z-score) (GlcNAc(b1-6)GalNAc): 0.004
glycan array binding signal (z-score) [17]: 0.83
glycan array binding signal (z-score) (Kdn(a2-3)Gal(b1-3)GalNAc): -0.107
glycan array binding signal (z-score) (Kdn(a2-3)Gal(b1-3)GlcNAc): 0.092
glycan array binding signal (z-score) (Kdn(a2-3)Gal(b1-4)Glc): 0.635
glycan array binding signal (z-score) (Kdn(a2-3)Gal(b1-4)GlcNAc): -0.524
glycan array binding signal (z-score) [18]: 0.081
glycan array binding signal (z-score) (Kdn(a2-6)Gal(b1-4)GlcNAc): -0.352
glycan array binding signal (z-score) [19]: -0.939
glycan array binding signal (z-score) [20]: -1.17
glycan array binding signal (z-score) (Man(a1-2)Man(a1-3)Man): -0.525
glycan array binding signal (z-score) [21]: -0.762
glycan array binding signal (z-score) [22]: 0.583
glycan array binding signal (z-score) [23]: 0.778
glycan array binding signal (z-score) [24]: -0.726
glycan array binding signal (z-score) [25]: -1.21
glycan array binding signal (z-score) [26]: -0.031
glycan array binding signal (z-score) (Man(a1-3)[Man(a1-6)]Man): 1.36
glycan array binding signal (z-score) [27]: 0.6
glycan array binding signal (z-score) [28]: 0.422
glycan array binding signal (z-score) [29]: -0.335
glycan array binding signal (z-score) [30]: -0.007
glycan array binding signal (z-score) [31]: 0.466
glycan array binding signal (z-score) (Man(a1-6)Man): 0.933
glycan array binding signal (z-score) (Man(b1-4)GlcNAc): -0.398
glycan array binding signal (z-score) (MurNAc(b1-4)GlcNAc): 1.79
